No constants are given. Whether binding was seen depends on the method and setting. Binding seen in cells or lysates may run through a third protein. A result given as binding can be weak or reduced; the word gives no strength.
Molecular target: His-tagged recombinant wild-type leucocyte elastase inhibitor (LEI)
Assay: pull-down; His-tagged LEI loaded on His-select cartridge (nickel resin); 100 ug crude extract of HeLa cells loaded, washed, eluted; eluate blotted with anti-PKC zeta; only the target purified

binding: binds
B1: Protein kinase C (PKC) zeta, endogenous in HeLa cells (enzyme, UniProt Q05513 1-592)
chain: MPSRTGPKMEGSGGRVRLKAHYGGDIFITSVDAATTFEELCEEVRDMCRLHQQHPLTLKWVDSEGDPCTVSSQMELEEAFRLARQCRDEGLIIHVFPSTPEQPGLPCPGEDKSIYRRGARRWRKLYRANGHLFQAKRFNRRAYCGQCSERIWGLARQGYRCINCKLLVHKRCHGLVPLTCRKHMDSVMPSQEPPVDDKNEDADLPSEETDGIAYISSSRKHDSIKDDSEDLKPVIDGMDGIKISQGLGLQDFDLIRVIGRGSYAKVLLVRLKKNDQIYAMKVVKKELVHDDEDIDWVQTEKHVFEQASSNPFLVGLHSCFQTTSRLFLVIEYVNGGDLMFHMQRQRKLPEEHARFYAAEICIALNFLHERGIIYRDLKLDNVLLDADGHIKLTDYGMCKEGLGPGDTTSTFCGTPNYIAPEILRGEEYGFSVDWWALGVLMFEMMAGRSPFDIITDNPDMNTEDYLFQVILEKPIRIPRFLSVKASHVLKGFLNKDPKERLGCRPQTGFSDIKSHAFFRSIDWDLLEKKQALPPFQPQITDDYGLDNFDTQFTSEPVQLTPDDEDAIKRIDQSEFEGFEYINPLLLSTEESV
